Data taken from article PMC9688267.
No constants are given. Whether binding was seen depends on the method and setting. In cells and extracts the contact can be indirect. Some entries that bind do so weakly or less than the wild type.

Amino acid sequences for entries named in this document (tags omitted). A change or cut given only in a name is not applied to a line headed by its entry.
UniProt P23819: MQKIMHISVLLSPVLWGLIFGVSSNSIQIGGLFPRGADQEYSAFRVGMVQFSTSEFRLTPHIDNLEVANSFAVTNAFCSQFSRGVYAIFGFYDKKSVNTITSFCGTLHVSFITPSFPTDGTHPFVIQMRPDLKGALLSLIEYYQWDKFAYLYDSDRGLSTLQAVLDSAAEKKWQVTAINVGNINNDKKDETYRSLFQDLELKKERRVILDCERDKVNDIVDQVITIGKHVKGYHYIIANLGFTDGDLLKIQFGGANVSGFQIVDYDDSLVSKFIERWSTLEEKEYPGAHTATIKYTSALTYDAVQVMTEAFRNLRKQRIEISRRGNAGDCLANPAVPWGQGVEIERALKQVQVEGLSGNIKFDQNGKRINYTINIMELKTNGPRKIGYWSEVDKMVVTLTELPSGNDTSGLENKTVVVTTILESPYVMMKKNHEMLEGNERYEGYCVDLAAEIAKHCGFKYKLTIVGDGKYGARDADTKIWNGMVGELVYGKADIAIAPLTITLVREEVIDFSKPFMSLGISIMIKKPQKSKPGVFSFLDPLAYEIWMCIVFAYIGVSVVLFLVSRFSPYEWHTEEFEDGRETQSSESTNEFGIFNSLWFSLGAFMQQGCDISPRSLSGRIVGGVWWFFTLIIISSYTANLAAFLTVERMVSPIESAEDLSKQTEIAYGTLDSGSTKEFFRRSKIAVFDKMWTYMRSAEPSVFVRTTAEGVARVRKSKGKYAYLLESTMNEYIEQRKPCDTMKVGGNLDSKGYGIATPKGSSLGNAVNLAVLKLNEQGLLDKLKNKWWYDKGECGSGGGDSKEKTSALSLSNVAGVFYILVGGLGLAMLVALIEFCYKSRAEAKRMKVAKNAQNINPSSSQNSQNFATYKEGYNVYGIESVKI
UniProt Q9Z2W9: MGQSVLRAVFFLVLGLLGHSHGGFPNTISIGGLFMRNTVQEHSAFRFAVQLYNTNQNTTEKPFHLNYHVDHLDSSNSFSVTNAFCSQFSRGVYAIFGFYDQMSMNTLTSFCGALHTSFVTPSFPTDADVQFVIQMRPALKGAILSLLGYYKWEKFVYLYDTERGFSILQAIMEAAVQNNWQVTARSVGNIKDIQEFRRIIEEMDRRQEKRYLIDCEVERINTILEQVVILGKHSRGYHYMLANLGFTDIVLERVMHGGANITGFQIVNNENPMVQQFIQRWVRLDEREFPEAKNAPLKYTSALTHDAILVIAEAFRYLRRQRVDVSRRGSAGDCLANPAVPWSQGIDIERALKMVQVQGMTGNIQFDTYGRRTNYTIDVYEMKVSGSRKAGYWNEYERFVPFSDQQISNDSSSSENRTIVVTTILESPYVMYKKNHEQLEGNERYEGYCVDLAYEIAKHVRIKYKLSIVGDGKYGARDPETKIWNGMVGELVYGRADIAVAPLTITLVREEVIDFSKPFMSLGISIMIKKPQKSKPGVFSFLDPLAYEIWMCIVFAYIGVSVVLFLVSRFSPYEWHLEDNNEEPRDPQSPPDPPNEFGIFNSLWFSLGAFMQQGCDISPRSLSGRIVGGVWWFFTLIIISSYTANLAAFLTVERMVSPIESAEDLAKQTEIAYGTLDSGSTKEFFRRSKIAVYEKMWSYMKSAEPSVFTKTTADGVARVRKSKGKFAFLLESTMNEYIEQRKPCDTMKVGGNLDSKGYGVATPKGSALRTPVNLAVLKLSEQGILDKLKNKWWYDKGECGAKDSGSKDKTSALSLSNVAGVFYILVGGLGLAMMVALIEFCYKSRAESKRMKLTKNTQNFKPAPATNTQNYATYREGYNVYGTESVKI

Target: GluA2/3 receptor (AMPA receptor heterotetramer of GluA2 and GluA3) (mouse (endogenous in hippocampus)) (UniProt P23819+Q9Z2W9)
Assay: co-IP; anti-GluA2/3 IP (10 µg) from wildtype hippocampus synaptic extract after prior depletion of GluA1-containing receptors with 33 µg GluA1-specific antibody (IP+); immunoblot; n = 3

B1: Cornichon homolog 2 (protein, UniProt O35089 1-160)
chain: MAFTFAAFCYMLTLVLCASLIFFVIWHIIAFDELRTDFKNPIDQGNPARARERLKNIERICCLLRKLVVPEYSIHGLFCLMFLCAAEWVTLGLNIPLLFYHLWRYFHRPADGSEVMYDAVSIMNADILNYCQKESWCKLAFYLLSFFYYLYSMVYTLVSF
For B1, the binding was “binds”.
